Assay results: US20220347256A1 (Biosolution Co., Ltd., priority 2019, published 2022)

Assay: peptide synthesis
Conditions: whole synthesis

Arg-Pro-Lys-Pro-Gln-Gln-Phe-Phe-Gly-Leu-Met-NH2
final purity (method not given): 85% or more
